Experimental data from publication PMC11250828.
Results are given in words; binding and its absence hold for the method and conditions named. Binding seen in cells or lysates may run through a third protein. Some binding calls cover weakened binding; strength is not graded here. Values belong to the binder of their own block, whether it stands above or below them.

How the values were obtained:
Experiment in all cases: co-IP; 10 ug antibody (LARP3, LARP7, MePCE, DKC1 or IgG) on Protein A Sepharose CL-4B beads, incubated with 1 mg 293T cell extract at 4 °C for 1 h; washed with NET-2 buffer (50 mM Tris-HCl pH 7.5, 150 mM NaCl, 0.05% NP-40); Western blot
[1] = target: T1, LARP7 (human (endogenous in 293T)), Q4G0J3; conditions: remark: other sources report otherwise
T1 chain: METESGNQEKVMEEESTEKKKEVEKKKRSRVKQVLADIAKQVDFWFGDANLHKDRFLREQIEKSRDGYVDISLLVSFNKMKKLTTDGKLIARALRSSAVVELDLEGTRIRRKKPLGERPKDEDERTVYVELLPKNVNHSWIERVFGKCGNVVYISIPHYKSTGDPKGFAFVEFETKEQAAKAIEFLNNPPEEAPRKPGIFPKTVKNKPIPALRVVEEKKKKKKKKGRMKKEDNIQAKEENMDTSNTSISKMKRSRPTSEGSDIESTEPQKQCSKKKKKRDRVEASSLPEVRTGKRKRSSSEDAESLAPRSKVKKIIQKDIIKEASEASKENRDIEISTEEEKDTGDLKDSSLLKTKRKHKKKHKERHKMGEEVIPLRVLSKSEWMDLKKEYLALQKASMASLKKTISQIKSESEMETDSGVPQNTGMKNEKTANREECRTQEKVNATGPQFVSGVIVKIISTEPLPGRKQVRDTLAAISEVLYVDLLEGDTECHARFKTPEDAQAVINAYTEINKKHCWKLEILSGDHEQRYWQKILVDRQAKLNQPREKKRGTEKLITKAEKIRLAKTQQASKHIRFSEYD

[2] = target: T2, LARP3 (a genuine La protein) (human (endogenous in 293T)), P05455; conditions: remark: other sources report otherwise
T2 chain: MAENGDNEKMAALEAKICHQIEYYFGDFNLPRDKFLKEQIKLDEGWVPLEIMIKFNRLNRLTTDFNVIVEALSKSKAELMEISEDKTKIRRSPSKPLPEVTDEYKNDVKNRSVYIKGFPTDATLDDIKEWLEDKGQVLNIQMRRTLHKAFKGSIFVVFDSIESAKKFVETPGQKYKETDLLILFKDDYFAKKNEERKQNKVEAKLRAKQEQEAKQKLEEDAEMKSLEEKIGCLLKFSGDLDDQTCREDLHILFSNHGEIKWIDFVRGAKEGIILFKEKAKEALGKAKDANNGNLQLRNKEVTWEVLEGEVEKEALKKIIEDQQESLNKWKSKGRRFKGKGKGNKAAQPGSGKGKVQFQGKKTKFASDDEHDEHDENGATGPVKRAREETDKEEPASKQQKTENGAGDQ

[3] = target: T3, LARP3 (a genuine La protein) (human (endogenous in 293T)) (UniProt P05455)
T3 sequence: T2 chain

- binding [1]: binds
B1: LARP3 (a genuine La protein), P05455 1-408 (protein)
chain: T2 chain

- binding [2]: binds
B2: LARP7, Q4G0J3 1-582 (protein)
chain: T1 chain

- binding [3]: binds
B3: methyl phosphate capping enzyme (MePCE) (enzyme, UniProt Q7L2J0 1-689)
chain: MIEMAAEKEPFLVPAPPPPLKDESGGGGGPTVPPHQEAASGELRGGTERGPGRCAPSAGSPAAAVGRESPGAAATSSSGPQAQQHRGGGPQAQSHGEARLSDPPGRAAPPDVGEERRGGGGTELGPPAPPRPRNGYQPHRPPGGGGGKRRNSCNVGGGGGGFKHPAFKRRRRVNSDCDSVLPSNFLLGGNIFDPLNLNSLLDEEVSRTLNAETPKSSPLPAKGRDPVEILIPKDITDPLSLNTCTDEGHVVLASPLKTGRKRHRHRGQHHQQQQAAGGSESHPVPPTAPLTPLLHGEGASQQPRHRGQNRDAPQPYELNTAINCRDEVVSPLPSALQGPSGSLSAPPAASVISAPPSSSSRHRKRRRTSSKSEAGARGGGQGSKEKGRGSWGGRHHHHHPLPAAGFKKQQRKFQYGNYCKYYGYRNPSCEDGRLRVLKPEWFRGRDVLDLGCNVGHLTLSIACKWGPSRMVGLDIDSRLIHSARQNIRHYLSEELRLPPQTLEGDPGAEGEEGTTTVRKRSCFPASLTASRGPIAAPQVPLDGADTSVFPNNVVFVTGNYVLDRDDLVEAQTPEYDVVLCLSLTKWVHLNWGDEGLKRMFRRIYRHLRPGGILVLEPQPWSSYGKRKTLTETIYKNYYRIQLKPEQFSSYLTSPDVGFSSYELVATPHNTSKGFQRPVYLFHKARSPSH

- binding [3]: no binding
B4: DKC1 (protein, UniProt O60832 1-514)
chain: MADAEVIILPKKHKKKKERKSLPEEDVAEIQHAEEFLIKPESKVAKLDTSQWPLLLKNFDKLNVRTTHYTPLACGSNPLKREIGDYIRTGFINLDKPSNPSSHEVVAWIRRILRVEKTGHSGTLDPKVTGCLIVCIERATRLVKSQQSAGKEYVGIVRLHNAIEGGTQLSRALETLTGALFQRPPLIAAVKRQLRVRTIYESKMIEYDPERRLGIFWVSCEAGTYIRTLCVHLGLLLGVGGQMQELRRVRSGVMSEKDHMVTMHDVLDAQWLYDNHKDESYLRRVVYPLEKLLTSHKRLVMKDSAVNAICYGAKIMLPGVLRYEDGIEVNQEIVVITTKGEAICMAIALMTTAVISTCDHGIVAKIKRVIMERDTYPRKWGLGPKASQKKLMIKQGLLDKHGKPTDSTPATWKQEYVDYSESAKKEVVAEVVKAPQVVAEAAKTAKRKRESESESDETPPAAPQLIKKEKKKSKKDKKAKAGLESGAEPGDGDSDTTKKKKKKKKAKEVELVSE
